Experimental data: PubChem BioAssay AID1224826 (NIAID, 2016)
Here is one part, drawn at random, of about 17,000 reagents tested. About 1,110 of them (6.6%) were called active. 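Active means lowered or raised reporter signal; replicate intensities are raw and not normalised per plate.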 Unmarked entries are inactive.

Aim: 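Genes that change LPS-induced Tnf promoter activity in mouse macrophages when knocked down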 (primary screen)
System: RAW264.7 G9 macrophages from mouse bearing reporters for p65 (GFP) and the Tnf promoter (mCherry)
Reagents: siRNA pool against mouse genes, 100 nM
Time to read-out: 16 h of LPS stimulation, after 2 days of siRNA transfection
Conditions: bacterial lipopolysaccharide (Salmonella minnesota R595), 10 ng/ml
Read-out: 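Nuclear mCherry signal of the Tnf promoter reporter measured by imaging after background removal, scaled to each plate median and turned into robust z-scores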
Direction: Tnf reporter robust z-score: higher = stronger Tnf promoter reporter signal after LPS; Tnf reporter intensity: higher = stronger Tnf promoter reporter signal
Hit rule: 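a well counts as active at a score of -1.3 or below (Tlr4 knock-down control median) or above 3 (raised signal); controls and wells holding fewer than 50 cells are excluded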
Calls: active = Tnf reporter clearly lowered or raised; inactive = no clear change in Tnf reporter

gene symbol	Tnf reporter robust z-score	fewer than 50 cells in well	Tnf reporter intensity, replicate 1	Tnf reporter intensity, replicate 2
Pdlim4	-0.52	enough cells in well	196	152
Or52i2		fewer than 50 cells per well; well left out of calls	92.8	72.2
Ap3m2	-0.74	enough cells in well	150	102
9530002B09Rik	-0.62	enough cells in well	184	106
Ss18	0	enough cells in well	328	173
Adsl	3.83 (active)	enough cells in well	393	381
Itga9	2.03	enough cells in well	375	274
Odf1	1.61	enough cells in well	248	266
Anxa1	0.87	enough cells in well	214	224
Kcne1	0.08	enough cells in well	226	169
Rilpl2	1.03	enough cells in well	178	243
Ywhah		fewer than 50 cells per well; well left out of calls	146	126
Alox12	-0.44	enough cells in well	104	228
Foxh1	0.7	enough cells in well	345	267
Sorl1	0.89	enough cells in well	364	279
Abra	-0.2	enough cells in well	110	186
Rnf10	2.61	enough cells in well	230	250
Chst11	1.06	enough cells in well	205	140
Zp1	1.69	enough cells in well	192	199
Sdhb	-0.69	enough cells in well	228	154
Or13l2	-0.36	enough cells in well	282	65.1
Ucn3		fewer than 50 cells per well; well left out of calls	72.7	67.9
Fut2b	-0.09	enough cells in well	98.8	26.5
C530043A13Rik	1.39	enough cells in well	0	243

2 entries already listed, ordered by “Tnf reporter intensity, replicate 2”, highest first.
gene symbol	Tnf reporter robust z-score	fewer than 50 cells in well	Tnf reporter intensity, replicate 1	Tnf reporter intensity, replicate 2
Ucn3		fewer than 50 cells per well; well left out of calls	72.7	67.9
Or13l2	-0.36	enough cells in well	282	65.1
